Reference: the supplement of paper PMC12889115
Some of the results follow. Values are raw readings; no control value is given beside them.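 First-pass screen: polymyxin B was added at a level that permeabilizes the Salmonella outer membrane while sparing the inner membrane. DMSO wells, with and without polymyxin B, defined maximum growth. Because plates differed from one another, each plate's data were ranked separately and the compounds with the lowest OD600 were carried forward as hits.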

System: Salmonella enterica serovar Typhimurium SL1344
Test: bacterial growth OD600 after 18 h with compound and polymyxin B; higher = more bacterial growth (less inhibition)
Settings: 50 µM, Mueller-Hinton broth

For CC1CCN(C(=O)CC(c2ccc(O)cc2)c2cccc(O)c2)CC1 (stereo unspecified), the “bacterial growth OD600” value (polymyxin B 1 µg/mL) was 0.828.

In the case of Cc1nn(C)cc1CN1CCOc2ccc(C3=Cc4ccccc4C3)cc2C1, the “bacterial growth OD600” value (polymyxin B 0.75 µg/mL) is reported as 0.003.

O=C(NCC1CCCN(C(=O)NCCc2ccccc2)C1)c1cccnc1 (stereo unspecified) was tested, and the “bacterial growth OD600” value (polymyxin B 0.75 µg/mL) was 0.844.

For CC1(C)Cc2nc(N3CCOCC3)ncc2C(NC(=O)Cc2cccs2)C1 (stereo unspecified), the “bacterial growth OD600” value (polymyxin B 0.75 µg/mL) was 0.822.

COCC1CCCN(C(=O)c2cc(COc3cc(C)ccc3C)on2)C1 (stereo unspecified) was tested, and the “bacterial growth OD600” value (polymyxin B 0.75 µg/mL) was 0.233.

For CC(C)CNC(=O)c1coc(COc2cccc3cccnc23)n1, the “bacterial growth OD600” value (polymyxin B 0.75 µg/mL) was 0.796.

With CN(CCc1ccccn1)c1ncccc1CNC(=O)c1coc2c1C(=O)CCC2 the “bacterial growth OD600” value (polymyxin B 0.75 µg/mL) was 0.818.

With COc1cccc(CN2C(=O)NC(C)(C3CCN(C(=O)c4cccnc4SC)CC3)C2=O)c1OC (stereo unspecified) the “bacterial growth OD600” value (polymyxin B 0.75 µg/mL) was 0.827.

In the case of CO[C@H]1[C@H](NC(=O)Cc2cccs2)c2ccccc2C12CCN(Cc1ccc(C)cc1)CC2, the “bacterial growth OD600” value (polymyxin B 0.75 µg/mL) is reported as 0.724.

In the case of O=C(c1ccc2oc(Cc3ccccc3)nc2c1)N1CCCCCCC1, the “bacterial growth OD600” value (polymyxin B 1 µg/mL) is reported as 0.662.

CC(C)CN1CCC(C2CCN(Cc3nccs3)C2)CC1 (stereo unspecified) was tested, and the “bacterial growth OD600” value (polymyxin B 0.75 µg/mL) was 0.894.

COc1ccc(NC2CCCN(C(=O)c3cc4ccccc4o3)C2)cc1 (stereo unspecified) was tested, and the “bacterial growth OD600” value (polymyxin B 1 µg/mL) was 0.703.

In the case of CN(CC1CCOCC1)C(=O)C1CCC(=O)N(CC2CCCCC2)C1 (stereo unspecified), the “bacterial growth OD600” value (polymyxin B 1 µg/mL) is reported as 1.12.

With Cc1ccc(CN(C)C(=O)c2ccccc2OC2CCN(Cc3ccccn3)CC2)o1 the “bacterial growth OD600” value (polymyxin B 1 µg/mL) was 0.977.

In the case of CC(=O)N[C@@H]1c2ccccc2C2(CCN(Cc3nc4ccccc4n3C)CC2)[C@H]1OCc1ccccc1, the “bacterial growth OD600” value (polymyxin B 0.75 µg/mL) is reported as 0.773.

With COCC(=O)Nc1cc(C(=O)NC2Cc3ccccc3C2)cc2ncn(CCc3ccccc3)c12 the “bacterial growth OD600” value (polymyxin B 0.75 µg/mL) was 0.814.

CCOC(=O)C1(Cc2ccccc2F)CCCN(Cc2cn(CC(N)=O)c3ccccc23)C1 (stereo unspecified) was tested, and the “bacterial growth OD600” value (polymyxin B 1 µg/mL) was 1.28.

With CN(CC(O)c1ccccc1)C(=O)CC1(c2ccccc2Cl)CC(=O)N(C2CCCC2)C1=O (stereo unspecified) the “bacterial growth OD600” value (polymyxin B 0.75 µg/mL) was 0.005.

In the case of O=C(NCc1cccnc1)C1CCN(C2CCN(CCCC(F)(F)F)CC2)CC1, the “bacterial growth OD600” value (polymyxin B 1 µg/mL) is reported as 0.888.

In the case of OCCC1CN(Cc2cccc3nonc23)CCN1Cc1ccccc1F (stereo unspecified), the “bacterial growth OD600” value (polymyxin B 1 µg/mL) is reported as 0.769.

In the case of O=C(Cc1ccc(N2CCC(NCCOc3cccnc3)CC2)cc1)NCCc1cccc(F)c1, the “bacterial growth OD600” value (polymyxin B 0.75 µg/mL) is reported as 0.791.

Cc1nc(-c2ccncc2)ncc1C(C)NCc1cccn1-c1ncccn1 (stereo unspecified) was tested, and the “bacterial growth OD600” value (polymyxin B 0.75 µg/mL) was 0.788.

With COC(=O)CCC(=O)N1CCCC(CCC(=O)Nc2cc(Cl)ccc2OC)C1 (stereo unspecified) the “bacterial growth OD600” value (polymyxin B 1 µg/mL) was 0.883.

For O=C(CC1=CCCCC1)N1CCC(C2(c3cccnc3)NC(=O)N(CCc3cccs3)C2=O)CC1 (stereo unspecified), the “bacterial growth OD600” value (polymyxin B 0.75 µg/mL) was 0.833.

With CC(C)NC1CC(=O)N(CCc2ccc(F)cc2)C1 (stereo unspecified) the “bacterial growth OD600” value (polymyxin B 1 µg/mL) was 0.864.

In the case of CN(Cc1nccn1C)C(=O)c1csc2nc(-c3cccc(F)c3)cn12, the “bacterial growth OD600” value (polymyxin B 1 µg/mL) is reported as 0.042.

CCOC(=O)C1(CC2CC2)CCN(S(=O)(=O)c2cc(Cl)ccc2OC)CC1 was tested, and the “bacterial growth OD600” value (polymyxin B 1 µg/mL) was 0.609.

CC(CN1CCC(N2CCC(C(=O)NCc3cccnc3)CC2)CC1)c1ccccc1 (stereo unspecified) was tested, and the “bacterial growth OD600” value (polymyxin B 1 µg/mL) was 0.768.

With COc1ccc(-n2cc(CNCC3COCCO3)c(-c3ccccc3Cl)n2)cc1 (stereo unspecified) the “bacterial growth OD600” value (polymyxin B 1 µg/mL) was 0.883.

For CCOC(=O)N1CCN(C(=O)c2ccc(N3CCC(N(C)Cc4ccn[nH]4)CC3)cc2)CC1, the “bacterial growth OD600” value (polymyxin B 0.75 µg/mL) was 0.821.

For CN(CC1CCN(CCc2cccc(F)c2)CC1)C(=O)c1cc(C2CC2)n[nH]1, the “bacterial growth OD600” value (polymyxin B 1 µg/mL) was 0.91.
